Two sequences from PMC12710714 can be followed below.

For at least one entry, the source does not settle the construct or the ends of the probe.

This data set has as its system His-NbARF19 DBD (Nicotiana benthamiana). Put plainly: EMSA. As to conditions: EMSA: protein dialyzed in 1x PBS, incubated with labeled probe 20 min at room temperature, agarose gel, Odyssey DLx imaging, binding buffer, recombinant protein, protein details: His (pET28a). Background: In EMSA bound probe runs differently from free probe, usually more slowly.

For “CCAGACACAAACTTGTGGCCAGATAAGATGTTGACACCAGATATGAACCTGTTGTCGGA (double strand) [NbYUC8 promoter probe (AuxRE)]”, the binding result (unlabeled probe competes) is reported as “binds”.

For the sequence “AATCAAAACGAGAGAAACAGAGAGCCGACATAGTCTTAACCACCGGTGAA (double strand) [NbGSL8 promoter probe (M2 AuxRE)]”, the binding result (excess unlabeled probe competes) was “binds”.
